# According to PMC3489787, “Characterization of EssB, a protein required for secretion of ESAT-6 like proteins in Staphylococcus aureus” (BMC Microbiology, 2012):
# Chains of the proteins cited; added tags and fusions are not shown. Lines headed by an entry give the natural chain unless they say otherwise; changes in a name come on top.
# UniProt Q2G185: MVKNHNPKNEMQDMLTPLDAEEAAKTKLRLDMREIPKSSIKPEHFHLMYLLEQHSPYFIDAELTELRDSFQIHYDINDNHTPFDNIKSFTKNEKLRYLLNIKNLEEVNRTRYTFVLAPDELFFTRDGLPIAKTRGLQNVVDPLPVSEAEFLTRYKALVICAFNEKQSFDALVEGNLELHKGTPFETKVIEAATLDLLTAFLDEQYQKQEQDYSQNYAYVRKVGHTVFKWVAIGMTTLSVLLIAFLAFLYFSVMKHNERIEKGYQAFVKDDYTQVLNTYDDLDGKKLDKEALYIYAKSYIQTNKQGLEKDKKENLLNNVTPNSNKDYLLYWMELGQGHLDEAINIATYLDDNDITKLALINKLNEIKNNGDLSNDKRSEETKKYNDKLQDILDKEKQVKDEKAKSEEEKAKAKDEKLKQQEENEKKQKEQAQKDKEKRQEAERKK
# These are yes or no findings as the source states them, for the method shown. Some entries that bind do so weakly or less than the wild type.
# Columns and labels:
# [1] = target: EssB^N (Staphylococcus aureus) (UniProt Q2G185); experiment: SEC; about 100 ug of each purified protein, tags removed, on Superdex 75 10/300 GL in 50 mM Tris-HCl pH 8.0, 150 mM NaCl, 1 mM DTT at 4 °C, 0.5 ml/min; fractions on Coomassie-stained SDS-PAGE; calibrated with aldolase 158, conalbumin 75, ovalbumin 43, myoglobin 17 kDa (the results name a Sephacryl S-200 column); both purified
# [2] = target: EssB^C (Staphylococcus aureus) (UniProt Q2G185); experiment: as above
# [3] = target: EssB (full length, recombinant) (Staphylococcus aureus) (UniProt Q2G185); experiment: SEC; gel filtration of EssB with the protein concentration increased or decreased by a factor of 10; data not shown; both purified
# [4] = target: EssB (full length, recombinant) (Staphylococcus aureus) (UniProt Q2G185); experiment: SEC; about 100 ug of each purified protein, tags removed, on Superdex 75 10/300 GL in 50 mM Tris-HCl pH 8.0, 150 mM NaCl, 1 mM DTT at 4 °C, 0.5 ml/min; fractions on Coomassie-stained SDS-PAGE; calibrated with aldolase 158, conalbumin 75, ovalbumin 43, myoglobin 17 kDa (the results name a Sephacryl S-200 column); both purified
substance,measurement,setting,value
EssB^N (from UniProt Q2G185 1-223) (domain or fragment),binding,[1],no binding
EssB^C (from UniProt Q2G185 253-444) (domain or fragment),binding,[2],no binding
"EssB (full length, recombinant) (from UniProt Q2G185 1-444)",binding,[3],binds
same,binding,[4],binds
